Reference: paper PMC9416163, “Antiproliferative Copper(II) Complexes Bearing Mixed Chelating Ligands: Structural Characterization, ROS Scavenging, In Silico Studies, and Anti-Melanoma Activity” (Pharmaceutics, 2022)

Tested on: B16 murine melanoma cells
Test: MTT cell viability assay on B16 cells
Assay type: cell-based, mouse
Procedure: Human fibroblast cells (BJ-ATCC CRL-2522, USA) were grown in minimal essential medium (MEM) supplemented with 2 mM L-Glutamine, 10% fetal calf serum (FCS), 100 units/mL of penicillin, and 100 µg/mL of streptomycin at 37 °C in a humidified incubator under an atmosphere containing 5% CO2. Mouse melanoma cells (B16-ATCC CRL-6475, USA) were grown in DMEM (Dulbecco’s Modified Eagle Medium) supplemented with reagents like MEM. All cell cultivation media and reagents were purchased from Biochrom AG (Berlin, Germany) and Sigma-Aldrich (Darmstadt, Germany).
Cell viability was evaluated using the MTT assay (3-(4,5-dimethylthiazol-2-yl)-2,5-diphenyltetrazolium bromide) as previously described. Briefly, BJ and B16 cells were seeded in 96-well plates at densities of 10,000 cells/well and 7000 cells/well and further cultured in the medium for 24 h. The next day, the investigated compounds were added at a concentration of 1 to 25 μM for 24 and 48 h. The cells cultivated in medium without the studied samples served as negative controls. After incubation for the desired times, the medium was replaced with MTT solution (1 mg/mL) and incubated for an additional 4 h at 37 °C. Finally, the medium was collected, and DMSO was used to dissolve the insoluble formazan product. A Mithras 940 (Berthold, Bad Wildbad, Germany) plate reader was used to measure the absorbance of the samples at 570 nm. The data were corrected for background, and the percentage of viable cells was obtained using the following equation:Cell viability = [(A570 of treated cells)/(A570 of untreated cells)] × 100 (%)
Half-maximal inhibitory concentration (IC50) was determined by fitting the data with a sigmoidal logistic function using Origin 8.1 (Microcal Inc., Northampton, MA, USA) software.

Structure (SMILES)	therapeutic index (TI) (BJ versus B16, 24 h)	therapeutic index (TI) (BJ versus B16, 48 h)
CC(=O)C=C([O-])c1ccccc1.[Cu+2].[O-][Cl+3]([O-])([O-])[O-].c1cnc2c(c1)ccc1cccnc12 [Compound (1), [Cu(phen)(bzac)(ClO4)]]	1.13	1.27
CC(=O)C=C([O-])c1ccccc1.O.O=[N+]([O-])[O-].[Cu+2].c1cnc2c(c1)ccc1cccnc12 [Compound (2), [Cu(phen)(bzac)(NO3)]⋅H2O]	1.83	1.72
CC(=O)C=C([O-])c1ccccc1.[Cu+2].[O-][Cl+3]([O-])([O-])[O-].c1ccc(-c2ccccn2)nc1 [Compound (3), [Cu(bpy)(bzac)]ClO4]	1.32	2.24
CC(=O)C=C([O-])c1ccccc1.O=[N+]([O-])[O-].[Cu+2].c1ccc(-c2ccccn2)nc1 [Compound (4), [Cu(bpy)(bzac)(NO3)]]	1.82	2.19
